In the supplement of paper PMC10011410:

Key:
[1] = test system: U-2 OS; assay: AUC of Cytotox red (membrane-compromised) object count (AUC (object count x time)); higher = more apoptotic or dead cells
Protocol: (§1)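 Live-cell Incucyte imaging of U-2 OS cells with Caspase-3/7 Green and Cytotox Red reagents. Compounds were tested mostly at 5, 10 and 20 uM, and cells were imaged every 4 h for up to 60 h. Value is the area under the curve of positive object counts over time, per channel: green = caspase 3/7, red = membrane-compromised, overlap = both.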

[2] = test system: U-2 OS; assay: AUC of caspase 3/7-positive object count (AUC (object count x time)); higher = more apoptotic or dead cells
Protocol: as §1

| SMILES | AUC of Cytotox red ([1]; 5 µM) | AUC of Cytotox red ([1]; 10 µM) | AUC of Cytotox red ([1]; 20 µM) | AUC of caspase 3/7-positive object count ([2]; 5 µM) | AUC of caspase 3/7-positive object count ([2]; 10 µM) | AUC of caspase 3/7-positive object count ([2]; 20 µM) | AUC of Cytotox red ([1]; 0.625 µM) | AUC of Cytotox red ([1]; 1.25 µM) | AUC of Cytotox red ([1]; 2.5 µM) | AUC of caspase 3/7-positive object count ([2]; 0.625 µM) | AUC of caspase 3/7-positive object count ([2]; 1.25 µM) | AUC of caspase 3/7-positive object count ([2]; 2.5 µM) |
| --- | --- | --- | --- | --- | --- | --- | --- | --- | --- | --- | --- | --- |
| CC(C)[C@H]1OC(=O)[C@H](Cc2ccccc2)N(C)C(=O)[C@@H](C(C)C)OC(=O)[C@H](Cc2ccccc2)N(C)C(=O)[C@@H](C(C)C)OC(=O)[C@H](Cc2ccccc2)N(C)C1=O | 1030 | 318 | 1880 | 552 | 206 | 614 |  |  |  |  |  |  |
| C[C@]12O[C@H](C[C@]1(O)CO)n1c3ccccc3c3c4c(c5c6ccccc6n2c5c31)CNC4=O | 548 | 415 | 53 | 767 | 852 | 1490 |  |  |  |  |  |  |
| C=C1[C@@H](C)[C@H]2[C@H](Cc3ccccc3)NC(=O)[C@]23[C@H](OC(C)=O)/C=C/[C@@](C)(O)C(=O)[C@@H](C)C/C=C/[C@H]3[C@@H]1O | 257 | 362 | 357 | 232 | 294 | 368 |  |  |  |  |  |  |
| Oc1ccc(/C=C/c2cc(O)cc(O)c2)cc1 | 21.3 | 41.3 | 33.6 | 39 | 53.2 | 31.7 |  |  |  |  |  |  |
| Cc1csc(=NC2CCCCC2)n1/N=C/c1ccc(O)c(O)c1O | 27.5 | 37.6 | 45.3 | 44.1 | 70.9 | 370 |  |  |  |  |  |  |
| Nc1nc(-c2ccccc2)[n+](-c2ccccc2)s1 | 38.8 | 46.4 | 34.7 | 24.9 | 33.4 | 29 |  |  |  |  |  |  |
| Oc1ccc(/C=C\c2cc(O)cc(O)c2)cc1 | 27 | 41.3 | 32.5 | 46.5 | 36.6 | 21.6 |  |  |  |  |  |  |
| c1ccc(Nc2nc(-c3ccccc3)ns2)cc1 | 38.8 | 35.1 | 37.4 | 50.9 | 51.9 | 54.9 |  |  |  |  |  |  |
| O=C(Nc1nc(-c2ccccc2)ns1)c1cccs1 | 43.4 | 43.9 | 31.5 | 38.6 | 55.4 | 34.6 |  |  |  |  |  |  |
| CC(C)(C)C(=O)OCOc1cccc2ccccc12 | 31.2 | 38.6 | 125 | 21.2 | 27.1 | 93.6 |  |  |  |  |  |  |
| COC[C@H]1OC(=O)c2coc3c2[C@@]1(C)C1=C(C3=O)[C@@H]2CCC(=O)[C@@]2(C)C[C@H]1OC(C)=O | 60.7 | 75.1 | 299 | 75.6 | 99.5 | 434 | 38.8 | 35.2 | 47.7 | 49.8 | 47.5 | 65 |
| Nc1nc(Cl)nc2c1ncn2[C@H]1C[C@H](O)[C@@H](CO)O1 | 78.9 | 96.1 | 102 | 121 | 154 | 170 |  |  |  |  |  |  |
| N[C@@H](Cc1ccc(N(CCCl)CCCl)cc1)C(=O)O | 58 | 70 | 165 | 34.6 | 40.5 | 127 |  |  |  |  |  |  |

Two of the compounds above, as comma-separated lines:
SMILES,AUC of Cytotox red ([1]; 5 µM),AUC of Cytotox red ([1]; 10 µM),AUC of Cytotox red ([1]; 20 µM),AUC of caspase 3/7-positive object count ([2]; 5 µM),AUC of caspase 3/7-positive object count ([2]; 10 µM),AUC of caspase 3/7-positive object count ([2]; 20 µM),AUC of Cytotox red ([1]; 0.625 µM),AUC of Cytotox red ([1]; 1.25 µM),AUC of Cytotox red ([1]; 2.5 µM),AUC of caspase 3/7-positive object count ([2]; 0.625 µM),AUC of caspase 3/7-positive object count ([2]; 1.25 µM),AUC of caspase 3/7-positive object count ([2]; 2.5 µM)
c1ccc(Nc2nc(-c3ccccc3)ns2)cc1,38.8,35.1,37.4,50.9,51.9,54.9,,,,,,
CC(C)(C)C(=O)OCOc1cccc2ccccc12,31.2,38.6,125,21.2,27.1,93.6,,,,,,

Values are raw readings; no control value is given beside them.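 Values average three technical replicates, each on its own plate. On all plates, reagent-free control wells corrected for intrinsic cell fluorescence and DMSO-treated wells acted as vehicle controls. No hit or active cutoff is set for these live-cell readings.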
